# PubChem BioAssay AID1259267 – Sanger Institute | 2017
# Screen: 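Kinase and colorectal-mutated gene knock-downs lethal to GP5D cells alone or with drugs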 (primary screen)
# Cell system: human GP5D colorectal cancer cells
# Reagents: siRNA pool against human genes
# Treatment: anchor drugs at low dose: BYL719 1 µM, cetuximab 5 µg/ml, trametinib 10 nM, or DMSO vehicle
# Measurement: 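Viability against non-targeting pool, replicate mean: robust z-score for knock-down alone, fraction with DMSO, synergy with BYL719 1 µM, cetuximab 5 µg/ml, trametinib 10 nM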
# Direction: robust z-score, knock-down alone and viability with DMSO: higher = more viable cells; synergy score with trametinib and synergy score with BYL719 and synergy score with cetuximab: higher = stronger synthetic lethal synergy with drug
# Hit rule: 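a robust z-score below -3 for the knock-down by itself makes a gene active, i.e. essential alone; synergy scores are ignored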
# Meaning of the calls: active = essential alone; inactive = not essential
# The deposit covers 794 reagents; this is a random part of them. 9 of all reagents (1.1%) count as active. 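Viability capped at 1; calls reflect loss of viability from knock-down alone, not synergy with drugs.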 Not stated in the record: the amount of reagent, the time to read-out.
gene symbol,PubChem SID,"robust z-score, knock-down alone",viability with DMSO (fraction of control),synergy score with trametinib,synergy score with BYL719,synergy score with cetuximab,Call
PRPS1,SID56479145,0.817,1,0.0999,-0.0301,-0.142,inactive
BLK,SID56478485,0.817,1,-0.0524,-0.0885,0.0132,inactive
KCNH2,SID135621164,-2.02,0.398,0.0781,-0.0901,-0.0242,inactive
CIT,SID56478810,0.817,1,0.208,-0.00983,0.171,inactive
PDK1,SID56478951,0.817,1,-0.0933,-0.181,-0.142,inactive
CDKL3,SID56478871,0.558,0.945,0.429,-0.00774,0.215,inactive
MAP3K5,SID56478697,0.231,0.876,0.107,-0.0209,-0.0184,inactive
NME2,SID152149420,-0.394,0.743,-0.0276,-0.121,0,inactive
EPHB1,SID152152600,0.817,1,-0.114,-0.144,-0.142,inactive
CALM2,SID134320655,-0.623,0.695,0.114,-0.0231,0.00313,inactive
CILK1,SID152149076,0.817,1,0.0827,0.00206,-0.142,inactive
STK36,SID135620924,0.171,0.863,0.279,-0.203,0.144,inactive
MAPK11,SID56478748,0.432,0.918,0.202,-0.0124,0.118,inactive
ULK1,SID56478976,0.817,1,0.059,-0.0699,-0.122,inactive
VRK2,SID152152279,0.817,1,0.153,-0.0271,-0.0167,inactive
CDKN2B,SID135620642,0.817,1,-0.197,-0.361,-0.142,inactive
PTEN,SID152153158,-1.65,0.478,-0.246,-0.355,-0.0339,inactive
PKLR,SID152148534,-2.39,0.32,0.0605,-0.205,0.0422,inactive
PRKAG3,SID56479232,-1.03,0.608,0.0823,-0.162,-0.12,inactive
GUCY2EP,SID152152788,0.754,0.987,0.261,-0.0774,0.0314,inactive

Just “viability with DMSO (fraction of control)” (2 entries from above):
PTEN [SID152153158]: 0.478
PKLR [SID152148534]: 0.32
